Results reported in publication PMC5606997.
Residue numbers refer to the chain shown, from its start. Results are given in words; binding and its absence hold for the method and conditions named. Binding seen in cells or lysates may run through a third protein. Some entries that bind do so weakly or less than the wild type. Tags and fused reporters may be left off the sequences shown.

Sequences of proteins named here, by UniProt entry; tags and fusion partners are left off.
UniProt P11940: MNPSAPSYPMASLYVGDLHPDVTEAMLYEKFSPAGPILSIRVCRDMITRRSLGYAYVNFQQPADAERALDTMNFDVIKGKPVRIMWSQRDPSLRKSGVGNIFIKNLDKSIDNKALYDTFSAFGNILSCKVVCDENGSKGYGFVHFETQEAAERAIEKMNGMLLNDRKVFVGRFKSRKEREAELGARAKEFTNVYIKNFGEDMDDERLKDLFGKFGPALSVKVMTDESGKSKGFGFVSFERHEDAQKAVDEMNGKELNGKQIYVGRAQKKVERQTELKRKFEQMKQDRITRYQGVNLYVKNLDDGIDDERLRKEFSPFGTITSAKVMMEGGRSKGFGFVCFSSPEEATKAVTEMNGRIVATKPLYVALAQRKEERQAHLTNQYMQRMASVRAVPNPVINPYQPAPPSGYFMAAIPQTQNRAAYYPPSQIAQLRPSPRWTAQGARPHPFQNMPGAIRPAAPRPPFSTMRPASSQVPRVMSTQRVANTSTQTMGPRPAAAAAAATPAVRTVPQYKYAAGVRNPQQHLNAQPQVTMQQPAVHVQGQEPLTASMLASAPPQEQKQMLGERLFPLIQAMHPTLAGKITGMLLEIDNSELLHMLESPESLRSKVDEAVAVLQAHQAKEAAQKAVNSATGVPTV

Assays:
FAM46C^mut-GFP (human) = target: T1, FAM46C^mut-GFP (human) (UniProt Q5VWP2); test: co-IP; GFP-tagged FAM46C from stable HEK293 cell lines, western blot of BCCIPβ and PABPC1; low ionic strength (physiological salt concentration)
T1 sequence: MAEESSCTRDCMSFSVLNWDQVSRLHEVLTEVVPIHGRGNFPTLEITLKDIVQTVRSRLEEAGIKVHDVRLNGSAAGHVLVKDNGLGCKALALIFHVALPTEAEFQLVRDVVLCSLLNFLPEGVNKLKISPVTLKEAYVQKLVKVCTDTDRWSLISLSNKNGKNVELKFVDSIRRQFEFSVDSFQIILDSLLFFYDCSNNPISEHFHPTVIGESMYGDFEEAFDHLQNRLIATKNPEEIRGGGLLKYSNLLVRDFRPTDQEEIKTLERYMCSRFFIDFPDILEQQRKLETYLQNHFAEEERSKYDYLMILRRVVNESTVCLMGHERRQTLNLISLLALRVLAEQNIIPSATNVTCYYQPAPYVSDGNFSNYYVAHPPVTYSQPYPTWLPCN

FAM46C^WT-GFP (human) [1] = target: T2, FAM46C^WT-GFP (human) (UniProt Q5VWP2); test: as above
T2 sequence: T1 sequence with A90D, A92D

FAM46C^WT-GFP (human) [2] = target: T2, FAM46C^WT-GFP (human); test: co-IP; FAM46C^WT-GFP from transduced SKMM1 and H929 MM cell lines, western blot of BCCIPβ and PABPC1
FAM46C^WT-GFP (human) [3] = target: T2, FAM46C^WT-GFP (human); test: co-IP; GFP-tagged FAM46C from stable HEK293 cell lines, western blot of BCCIPβ and PABPC1; high ionic strength

cytoplasmic poly(A)-binding protein PABPC1 (from UniProt P11940 1-636)
binding (FAM46C^mut-GFP (human)): binds
binding (FAM46C^WT-GFP (human) [1]): binds
binding (FAM46C^WT-GFP (human) [2]): binds
binding (FAM46C^WT-GFP (human) [3]): no binding (condition: high ionic strength)
